Mtb cholesterol medium: 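Growth of Mycobacterium tuberculosis over 4 days (cholesterol / DPPC medium with tyloxapol); the read-out is not stated. Compounds at 50 µM. Direction is inferred from retests: higher values go with more growth inhibition. Size under these conditions: about 69,000 compounds, about 370 of them at 50% or above in at least one test.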
Mtb glucose medium: 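Phenotypic screen: M. tuberculosis growth, glucose 7H9 medium, 3 days; the read-out is not stated. Tested at 50 µM. Higher reads as more growth inhibition (inferred: compounds with an IC50 in retests scored well above the rest). About 69,000 compounds were tested under these conditions; 1.1% (about 760) showed 50% or more at least once.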

The filed quantity is “Percent Effect” (%).
The controls that fix the scale are not given in the record; negative values are as filed.
This is an unselected part of the compounds tested.
Two or more numbers in one place are separate tests of the same structure; such repeats can differ widely.

| # | structure | Mtb cholesterol medium | Mtb glucose medium |
|---|---|---|---|
| 1 | `CN(C)CC1CN(Cc2ccc(-n3cccn3)cc2)CCO1` (stereo unspecified) | -5.298 | -24.45 |
| 2 | `O=C(NCC(F)(F)F)C1CSCN1S(=O)(=O)c1cccc(F)c1` (stereo unspecified) | -18.57 | -19.17 |
| 3 | `CCN(CC)C1COc2c(cc(Br)c(C)c2Br)C1=O` (stereo unspecified) | -23.46 | -65.87 |
| 4 | `CCc1ccsc1C(=O)N1CCN(CC(O)CC)CC1` (stereo unspecified) | 4.543 | 27.31 |
| 5 | `CC(=O)N1CCC(c2nnc3ccc(C(=O)NC(C)C)cn23)C1` (stereo unspecified) | 11.43 | -2.713 and -15.93 |
| 6 | `CC(C)CN1CC(C(=O)N(C)CCc2cn[nH]c2)CC1=O` (stereo unspecified) | 8.853 | 3.184 |
| 7 | `O=C(O)c1cc(S(=O)(=O)N2CCOc3ccccc32)cc(Cl)c1Cl` | -1.996 | 7.693 |
| 8 | `Cn1ccnc1CN1CCC2(CC1)CN(Cc1cccnc1)C(=O)CO2.O=C(O)C(F)(F)F.O=C(O)C(F)(F)F` | -0.6372 and -10.56 | -0.6575 and -9.793 |
| 9 | `CN(C)S(=O)(=O)NCc1nc(-c2cccc(F)c2)c(-c2ccccn2)[nH]1` | -18.98 | -9.328 |
| 10 | `CCN(CC)C(=O)Cn1cc(C(=O)NCCc2scnc2C)nn1` | 8.832 | 26.1 |
| 11 | `CCNC(=O)Cc1n[nH]c(-c2cncc(Br)c2)n1` | -48.53 | -69.1 |
| 12 | `O=C(NCCc1nnc2n1CCC2)N1CCC2(CCCCC2)C1` | -2.392 | -22.74 |
| 13 | `Cc1nnc(C(C)N2CCCN(Cc3noc(C4CC4)n3)CC2)o1` (stereo unspecified) | -3.616 | -0.1214 and -0.6084 |
| 14 | `CC(CNC(=O)Nc1cn[nH]c1)N1CCOCC1` (stereo unspecified) | -10.47 | 3.436 |
| 15 | `CCc1nc(N2CCCC(CO)(CCOC)C2)ncc1C` (stereo unspecified) | 1.448 | 17.64 |
| 16 | `Cc1cc(C)n2ncc(CN3CCC(n4cc(CCO)nn4)CC3)c2n1` | 0.2048 and -5.873 | -0.05061 |
| 17 | `Cc1ccccc1CNC(=O)c1ccccc1-n1cc(CN)cn1` | -9.119 | 16.54 |
| 18 | `Cc1nc(C)n(CC2CCCCN2Cc2nc(-c3ccco3)no2)n1` (stereo unspecified) | -21.58 | 17.6 |
| 19 | `Cc1cnn(CC2CCCN2C(=O)c2ccc(-n3cccn3)nc2)c1` (stereo unspecified) | 0.958 | -3.307 |
| 20 | `Cc1nc(NC(=O)N[C@H](CO)c2ccccc2)sc1C` | 31.31 | 23.98 |
| 21 | `CCOCc1nc2c(c(N3CC=CC3)n1)CCN(CC1CC1)CC2` | 9.032 | -0.9234 |
| 22 | `O=C(NC1CCN(c2ncccn2)CC1)c1cc2c(cc1O)CCCC2` | -0.08408 | 22.67 and 16.95 |
| 23 | `CCNc1cc2c(nn1)CCN(C(=O)c1cc(C)n(C3CC3)c1C)C2` | -14.92 | -8.188 |
| 24 | `CCOc1cccc(C(=O)N2CCCn3nc(CCC(=O)O)cc3C2)c1` | 1.981 and -22.15 | -30.43 |
| 25 | `COc1cc(CNC2CCc3nc(C(C)C)nn3C2)cc2c1OCO2` (stereo unspecified) | 1.266 | -10.93 |
| 26 | `CS(=O)(=O)N1CCC(Oc2ccc(C(=O)NC3CCOC3)cc2Cl)CC1` (stereo unspecified) | -13.05 | 12.42 |
| 27 | `Cc1cnn(CC2CCCCN2C(=O)c2ccc3nnc(C)n3c2)c1` (stereo unspecified) | -16.21 | -11.5 |
| 28 | `O=C(O)C1(Cc2ccc(F)cc2F)CCCN(Cc2ccncc2)C1` (stereo unspecified) | -6.465 | -0.207 and -7.425 |
| 29 | `CC(=O)c1ccc(S(=O)(=O)Nc2cnn(C3CCOCC3)c2)cc1` | -12.48 | 3.121 |
| 30 | `O=C(NCc1cn2c(n1)SCC2)c1ccc(CN2CCCCC2)cc1` | -23.47 | -21.19 |
| 31 | `Cc1cc(C(=O)N2CCc3nnc(N(C)C)cc3C2)c(C)n1C1CC1` | -8.468 | 5.14 |
| 32 | `CC(C)c1nc2cc(NC(=O)Cn3ccc(=O)[nH]c3=O)ccc2o1` | -0.8982 | 6.769 and 4.242 |
| 33 | `CCn1nc(C)c(CN2CCC(c3ccc(C(=O)O)cc3)C2)c1C` (stereo unspecified) | -27.69 | -0.9798 |
| 34 | `CC(C)CNC(=O)c1cccc(CN2CCc3c(ncn3C)C2)c1` | 14.56 | 21.58 |
| 35 | `COCCC(=O)N1CCCC(c2n[nH]cc2C)C1` (stereo unspecified) | -31.34 | 12.35 |
| 36 | `COC(=O)c1ccc(CN2CCC(c3noc(C)n3)CC2)s1` | -1.351 and -5.061 | -4.844 |
| 37 | `CC(C)COC(C)C(=O)N1CCC(C)CC1` (stereo unspecified) | 9.765 | 9.013 |
| 38 | `COC1CCN(c2ccc(F)cc2CN(C)S(C)(=O)=O)CC1` | -2.352 | 6.977 |
| 39 | `CC(C1CCN(Cc2c(Cl)cncc2Cl)CC1)N1CCOCC1` (stereo unspecified) | -0.8393 and -21.19 | -6.846 and 2.189 |
| 40 | `Nc1nccc(N2CCC(Cc3ccccc3Cl)(C(=O)O)CC2)n1` | 24.45 | 10.51 |
| 41 | `CC1=C(C(=O)N(C)Cc2noc3c2CCCC3)C(C)NC(=O)N1` (stereo unspecified) | -15.59 and 0.5571 | -21.48 |
| 42 | `O=C(O)C(F)(F)F.O=C(O)C(F)(F)F.[H][C@@]12CN(Cc3ccc(OC)cc3)C[C@]1([H])OCCN2CC1CCCO1` (stereo partly specified) | -2.761 | 3.516 |
| 43 | `COc1ccccc1C(=O)NS(=O)(=O)c1cncc(Br)c1` | 10.46 | -21.76 and 2.963 |
| 44 | `Cc1ccsc1CNC(=O)Nc1ccn(CCN2CCOCC2)n1` | -27.3 | -17.39 |
| 45 | `CC[C@@H](C)[C@@H](N)C(=O)Nc1cccc(-c2cnc(N)nc2)c1` | -25.6 | 0.5233 |
| 46 | `CCN(CC1CCCO1)C(=O)CSCC(=O)Nc1ccc(C)cc1` (stereo unspecified) | -2.631 | 22.5 |
| 47 | `O=C(O)C(F)(F)F.[H][C@@]12CCN(Cc3ccc(C)o3)[C@@]1([H])CCN2C(=O)Cc1cccs1` | -32.88 | -2.951 |
| 48 | `CN(C)C(=O)C1CCN(C2CCN(CC3CCC3)CC2)CC1.O=C(O)C(F)(F)F.O=C(O)C(F)(F)F` | -0.6318 | -10.85 |
| 49 | `COCCN(C)CC1CCCN1S(=O)(=O)c1cc(C)oc1C` (stereo unspecified) | -0.2094 | 8.025 and 2.309 |
| 50 | `N#Cc1ccc(CN2C(=O)c3ccccc3CS2(=O)=O)c(F)c1` | 1.707 | 3.097 |
| 51 | `CCc1ccc(CN2CCC3(CC2)C(=O)N(C)CCN3CC2CC2)cc1.O=C(O)C(F)(F)F` | 17.81 | -0.1505 |
| 52 | `[H][C@@]12CS(=O)(=O)C[C@]1([H])N(S(=O)(=O)c1ccccc1)CCN2C(=O)COC` | 4.628 | 9.266 |
| 53 | `[H][C@@]12CCN(S(=O)(=O)c3cccc(C)c3)C[C@]1(C(=O)NC)CCO2` | -8.09 | -17.1 |
| 54 | `COC(=O)CC1CCCCN1CC(=O)NCCc1ccc(F)cc1` (stereo unspecified) | -4.633 | 19.81 |
| 55 | `Cc1nnc(CN(C)CC2CCCN2c2cccnn2)o1` (stereo unspecified) | -4.505 | 5.109 |
| 56 | `Cc1nc(NCCC23CCCN2CCC3)cc(C2CCCNC2)n1` (stereo unspecified) | 11.94 and -1.881 | 0.5861 |
| 57 | `CC(C(=O)NCCOc1ccc2c(c1)OCO2)n1cncn1` (stereo unspecified) | -3.658 | -17.25 |
| 58 | `O=C(CCN1CCOC(C(F)(F)F)C1)NCc1ccccc1Cl` (stereo unspecified) | 22.55 and -0.2056 | -17.31 and -2.302 |
| 59 | `COc1cccc([C@@H]2CN(C(=O)c3ccc(C)cc3O)C[C@H]2C(=O)O)c1` | 10.78 | 26.82 |
| 60 | `COCC1c2c(cnn2C)CCN1Cc1cccc(C)c1.O=C(O)C(F)(F)F.O=C(O)C(F)(F)F` (stereo unspecified) | 14.66 | 3.804 |
| 61 | `O=C(O)C1(O)CCN(c2ccnc3c(C(F)(F)F)cccc23)CC1` | -3.949 | -21.4 |
| 62 | `COC(=O)c1occc1Cn1cc(Br)cn1` | 1.22 | -17.39 |
| 63 | `CC(O)(CNc1ccccn1)c1ccccc1` (stereo unspecified) | -21.23 | -37.33 |
| 64 | `O=C(NCC1CCCN(C(=O)NCCc2ccccc2)C1)c1ccco1` (stereo unspecified) | 15.71 | 31.39 |
| 65 | `Cc1ccn2ncc(C(=O)N3CCCC(n4ccnc4C)C3)c2n1` (stereo unspecified) | -16.03 | 10.29 |
| 66 | `CCCc1cc(=O)[nH]c2nnc(SCC(=O)OCC)n12` | -19.65 | -27.33 |
| 67 | `CCCN1CCN(C(=O)Cc2nc(-c3ccco3)oc2C)CC1` | -9.752 | -12.28 |
| 68 | `CC(=O)Nc1ccc(CNC(=O)CNCc2snnc2C)cc1` | 2.141 | -31.09 and -7.208 |
| 69 | `Nc1cc(-c2cccc3ccnn23)ccn1` | -11.21 | 7.771 |
| 70 | `Cc1ccc(-c2cc(N)c(=O)n(CC(=O)NCC3CC3)n2)s1` | -7.658 | -21.39 |
| 71 | `CCO[C@H]1COC[C@@H]1NC(=O)CCc1nc(-c2ccccc2)no1` | -17.46 | 14.49 |
| 72 | `c1cncc(CN2CCC(NCCc3ccc4c(c3)CCO4)CC2)c1` | -2.736 | -1.468 and -20.57 |
| 73 | `[H][C@]12CC[C@]([H])(CN(Cc3ccccn3)C1)N(CC(=O)Nc1ccn(C)n1)C2` | 15.31 | 4.588 |
| 74 | `Cc1nc2cc(O)nn2c(C)c1CCC(=O)N(C)Cc1cscn1` | 1.102 | -20.2 and -7.941 |
| 75 | `COc1ccc(C(=O)N(Cc2cnn(C)c2)C(C)C)cc1Br` | 10.27 | 25.18 |
| 76 | `CC(=O)c1cccc(OCCCC(=O)N(C)Cc2cnc(C)s2)c1` | 21.03 | -6.096 and -7.828 |
| 77 | `Cc1oc2nc[nH]c(=O)c2c1C(=O)N1CCCC(n2cccn2)C1` (stereo unspecified) | 1.971 | 17.17 |
| 78 | `[H][C@@]12CCN(C(=O)c3occc3C)C[C@]1(COCc1ccncc1)CCO2` | 5.1 | 27.94 |
| 79 | `CC(NC(=O)Nc1ccc(-n2cncn2)cc1)C(=O)NC(C)(C)C` (stereo unspecified) | -5.515 | 18.71 |
| 80 | `Cc1cnn(CCNCC(O)c2cccc(Br)c2)c1` (stereo unspecified) | 34.49 | 9.75 |
| 81 | `COC(=O)Cn1c(=O)nc2n1C(=O)N(c1cccc(Cl)c1)C2` | 8.65 | 24.33 |
| 82 | `COCC(=O)N1CCCCC1c1ccncn1` (stereo unspecified) | -14.49 | -13.26 |
| 83 | `CCN(C(=O)NCc1ccc(C)cc1OC)C(C)c1cccnc1` (stereo unspecified) | 0.7857 | 40 |

For reference, 10 entries once more:

| structure | Mtb cholesterol medium | Mtb glucose medium |
|---|---|---|
| `COCC1c2c(cnn2C)CCN1Cc1cccc(C)c1.O=C(O)C(F)(F)F.O=C(O)C(F)(F)F` (stereo unspecified) | 14.66 | 3.804 |
| `[H][C@@]12CS(=O)(=O)C[C@]1([H])N(S(=O)(=O)c1ccccc1)CCN2C(=O)COC` | 4.628 | 9.266 |
| `O=C(NCC(F)(F)F)C1CSCN1S(=O)(=O)c1cccc(F)c1` (stereo unspecified) | -18.57 | -19.17 |
| `Cc1ccn2ncc(C(=O)N3CCCC(n4ccnc4C)C3)c2n1` (stereo unspecified) | -16.03 | 10.29 |
| `O=C(CCN1CCOC(C(F)(F)F)C1)NCc1ccccc1Cl` (stereo unspecified) | 22.55 and -0.2056 | -17.31 and -2.302 |
| `CCN(CC)C1COc2c(cc(Br)c(C)c2Br)C1=O` (stereo unspecified) | -23.46 | -65.87 |
| `COC(=O)Cn1c(=O)nc2n1C(=O)N(c1cccc(Cl)c1)C2` | 8.65 | 24.33 |
| `Cc1nc(NC(=O)N[C@H](CO)c2ccccc2)sc1C` | 31.31 | 23.98 |
| `[H][C@@]12CCN(C(=O)c3occc3C)C[C@]1(COCc1ccncc1)CCO2` | 5.1 | 27.94 |
| `CCCN1CCN(C(=O)Cc2nc(-c3ccco3)oc2C)CC1` | -9.752 | -12.28 |

The values are deposited in ChEMBL (CHEMBL3988442, “University of Dundee, Small-Polar-MMV Screening Library” (2021)).